Measurements as given in article PMC12260538.
These are yes or no findings as the source states them, for the method shown. In cells and extracts the contact can be indirect. Some binding calls cover weakened binding; strength is not graded here.

Protein sequences, listed by entry. Tags and fused reporters are not part of them.
UniProt Q9Z183: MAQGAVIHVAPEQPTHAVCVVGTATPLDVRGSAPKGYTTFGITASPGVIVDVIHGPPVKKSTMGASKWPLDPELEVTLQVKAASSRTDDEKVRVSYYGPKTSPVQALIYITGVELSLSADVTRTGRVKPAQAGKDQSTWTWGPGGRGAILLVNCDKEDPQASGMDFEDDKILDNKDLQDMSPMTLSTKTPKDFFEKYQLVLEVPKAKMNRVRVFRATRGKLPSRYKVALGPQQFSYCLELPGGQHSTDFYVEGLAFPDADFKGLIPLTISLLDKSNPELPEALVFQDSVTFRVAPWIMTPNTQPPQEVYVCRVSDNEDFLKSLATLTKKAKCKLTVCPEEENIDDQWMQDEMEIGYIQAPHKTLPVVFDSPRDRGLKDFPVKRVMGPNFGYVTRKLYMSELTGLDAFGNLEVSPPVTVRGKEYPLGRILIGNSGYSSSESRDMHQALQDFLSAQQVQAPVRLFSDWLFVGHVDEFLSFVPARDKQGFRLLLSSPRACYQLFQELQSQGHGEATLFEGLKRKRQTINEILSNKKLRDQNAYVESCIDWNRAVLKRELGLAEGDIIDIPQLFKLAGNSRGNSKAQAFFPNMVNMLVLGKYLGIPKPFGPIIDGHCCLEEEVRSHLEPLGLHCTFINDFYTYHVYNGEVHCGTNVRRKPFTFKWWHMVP

Tests used:
[1] = molecular target: T1, STING (stimulator of interferon genes) (mouse (endogenous in lung tissue)) (UniProt Q3TBT3); test: co-IP; lung tissue lysates of mice of the Control and PR8 groups; mild lysis buffer (20 mM Tris/HCl pH 7.6, 150 mM NaCl, 20 mM KCl, 1.5 mM MgCl2, 0.5% NP-40); anti-STING, anti-GSDMD or normal IgG on Protein A/G beads, overnight at 4°C; washed with TBST 0.1% Tween 20; immunoblot
T1 sequence: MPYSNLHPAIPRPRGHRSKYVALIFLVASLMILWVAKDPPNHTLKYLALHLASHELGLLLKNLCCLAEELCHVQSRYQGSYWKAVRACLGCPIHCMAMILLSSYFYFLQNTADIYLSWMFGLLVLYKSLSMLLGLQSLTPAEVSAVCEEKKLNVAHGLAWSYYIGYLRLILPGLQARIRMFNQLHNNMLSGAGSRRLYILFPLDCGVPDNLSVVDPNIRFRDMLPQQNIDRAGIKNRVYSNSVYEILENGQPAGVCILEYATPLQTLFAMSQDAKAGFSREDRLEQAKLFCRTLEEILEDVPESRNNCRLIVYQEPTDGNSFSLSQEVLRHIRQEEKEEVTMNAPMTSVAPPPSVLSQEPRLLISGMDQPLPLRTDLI

[2] = molecular target: T2, gasdermin D (GSDMD) (mouse (endogenous in lung tissue)) (UniProt Q9D8T2); test: as above
T2 sequence: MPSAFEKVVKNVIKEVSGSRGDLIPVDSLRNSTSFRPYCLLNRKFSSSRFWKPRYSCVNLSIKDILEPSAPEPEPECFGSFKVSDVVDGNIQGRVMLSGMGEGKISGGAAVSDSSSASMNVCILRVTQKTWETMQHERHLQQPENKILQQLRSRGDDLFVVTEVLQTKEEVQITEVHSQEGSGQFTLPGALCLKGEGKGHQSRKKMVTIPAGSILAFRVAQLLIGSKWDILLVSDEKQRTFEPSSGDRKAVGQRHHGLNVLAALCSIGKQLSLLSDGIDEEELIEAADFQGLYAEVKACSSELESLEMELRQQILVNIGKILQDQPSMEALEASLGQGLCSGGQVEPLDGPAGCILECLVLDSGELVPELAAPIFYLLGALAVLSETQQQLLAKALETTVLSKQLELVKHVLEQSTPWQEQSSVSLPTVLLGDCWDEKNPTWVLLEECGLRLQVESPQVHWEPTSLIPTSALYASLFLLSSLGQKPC

binding [1]: binds
binding [2]: binds
Substance: PAD4 (from UniProt Q9Z183 1-666) (enzyme)
